Where two headings read alike, the source gives them in different places. No constants are given. Whether binding was seen depends on the method and setting. In cells and extracts the contact can be indirect. Some results given as binding are weak or reduced against the parent protein; the word gives no strength. For some assays here: Tags and fused reporters may be left off the sequences shown.
T1: SELENOW (retrovirally overexpressed in pre-osteoclasts) (UniProt P63300)
T1 sequence (chain, selenocysteine at 13 (SeCys encoded by UGA at codon 13)): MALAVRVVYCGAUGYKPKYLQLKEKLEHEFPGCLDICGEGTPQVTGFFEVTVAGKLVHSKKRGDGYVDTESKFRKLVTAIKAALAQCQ

Protein sequences, listed by entry. Tags and fused reporters are not part of them.
UniProt Q04207: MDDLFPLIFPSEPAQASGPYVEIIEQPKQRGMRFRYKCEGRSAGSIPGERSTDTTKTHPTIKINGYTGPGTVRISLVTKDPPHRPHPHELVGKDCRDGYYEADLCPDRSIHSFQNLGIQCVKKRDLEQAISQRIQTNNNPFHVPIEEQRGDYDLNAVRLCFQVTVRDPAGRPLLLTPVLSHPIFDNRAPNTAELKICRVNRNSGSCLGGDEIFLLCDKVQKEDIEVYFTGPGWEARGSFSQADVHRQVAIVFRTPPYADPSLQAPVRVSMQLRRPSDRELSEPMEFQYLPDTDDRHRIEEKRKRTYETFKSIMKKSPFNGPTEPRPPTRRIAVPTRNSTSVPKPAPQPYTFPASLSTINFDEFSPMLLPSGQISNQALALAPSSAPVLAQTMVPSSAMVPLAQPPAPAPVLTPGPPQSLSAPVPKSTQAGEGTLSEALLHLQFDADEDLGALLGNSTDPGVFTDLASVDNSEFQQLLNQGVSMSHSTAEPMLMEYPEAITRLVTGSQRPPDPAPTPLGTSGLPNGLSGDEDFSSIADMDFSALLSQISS
UniProt Q04206: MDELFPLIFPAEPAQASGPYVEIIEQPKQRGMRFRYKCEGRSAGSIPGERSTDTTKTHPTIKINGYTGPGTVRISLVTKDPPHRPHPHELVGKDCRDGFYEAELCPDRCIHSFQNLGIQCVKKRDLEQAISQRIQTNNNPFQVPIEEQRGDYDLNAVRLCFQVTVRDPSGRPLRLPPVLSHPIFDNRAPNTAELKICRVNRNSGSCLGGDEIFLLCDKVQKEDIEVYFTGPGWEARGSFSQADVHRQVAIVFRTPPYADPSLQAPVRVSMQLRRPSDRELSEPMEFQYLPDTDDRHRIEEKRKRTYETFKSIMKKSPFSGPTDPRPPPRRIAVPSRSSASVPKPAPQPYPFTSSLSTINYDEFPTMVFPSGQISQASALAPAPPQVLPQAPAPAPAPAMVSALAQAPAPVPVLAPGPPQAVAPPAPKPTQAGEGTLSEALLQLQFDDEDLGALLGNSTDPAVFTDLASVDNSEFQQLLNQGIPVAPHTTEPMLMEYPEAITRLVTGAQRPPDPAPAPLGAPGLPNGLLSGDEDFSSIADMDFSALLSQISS

T2: NFATc1, endogenous in mouse pre-osteoclasts (mouse (endogenous in pre-osteoclasts)) (UniProt O88942)
T2 sequence: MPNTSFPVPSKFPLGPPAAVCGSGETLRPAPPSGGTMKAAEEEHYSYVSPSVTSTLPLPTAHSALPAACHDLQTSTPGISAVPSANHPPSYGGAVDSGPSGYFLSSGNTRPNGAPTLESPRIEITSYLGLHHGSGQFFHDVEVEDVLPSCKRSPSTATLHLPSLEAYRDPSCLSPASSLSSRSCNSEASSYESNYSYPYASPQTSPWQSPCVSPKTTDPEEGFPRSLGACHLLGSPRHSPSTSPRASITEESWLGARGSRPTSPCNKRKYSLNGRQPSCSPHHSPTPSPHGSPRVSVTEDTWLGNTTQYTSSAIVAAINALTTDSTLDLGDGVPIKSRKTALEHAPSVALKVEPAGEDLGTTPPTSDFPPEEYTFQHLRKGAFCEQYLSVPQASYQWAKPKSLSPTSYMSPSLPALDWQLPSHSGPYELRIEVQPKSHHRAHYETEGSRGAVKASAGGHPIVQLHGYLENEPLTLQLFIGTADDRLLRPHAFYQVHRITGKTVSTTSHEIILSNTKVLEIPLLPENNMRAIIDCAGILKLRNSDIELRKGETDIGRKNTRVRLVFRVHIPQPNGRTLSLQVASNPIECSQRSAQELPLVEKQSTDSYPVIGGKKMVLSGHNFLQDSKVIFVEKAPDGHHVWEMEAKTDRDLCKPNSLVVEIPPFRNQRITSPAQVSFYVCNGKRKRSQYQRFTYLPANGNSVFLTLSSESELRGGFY

T3: 14-3-3γ, endogenous in mouse pre-osteoclasts (mouse (endogenous in pre-osteoclasts)) (UniProt P61982)
T3 sequence: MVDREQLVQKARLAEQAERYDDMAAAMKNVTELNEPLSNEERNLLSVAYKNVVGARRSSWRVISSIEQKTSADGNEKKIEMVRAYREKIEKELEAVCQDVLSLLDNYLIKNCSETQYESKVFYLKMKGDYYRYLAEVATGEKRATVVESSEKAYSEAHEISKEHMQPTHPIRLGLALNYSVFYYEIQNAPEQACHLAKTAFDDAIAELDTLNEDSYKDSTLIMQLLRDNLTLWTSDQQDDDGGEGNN

T4: His-tagged SELENOW (SeCys-13) (UniProt P63300)
T4 sequence (chain, selenocysteine at 13 (SeCys-13)): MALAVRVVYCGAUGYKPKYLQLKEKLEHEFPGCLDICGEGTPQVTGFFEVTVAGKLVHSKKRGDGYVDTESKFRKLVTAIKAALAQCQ


What was measured:
[1] = molecular target: T1, SELENOW (retrovirally overexpressed in pre-osteoclasts); assay: co-IP; nuclear extracts of pre-osteoclasts (osteoclast precursors infected with SELENOW-overexpressing retrovirus, M-CSF and RANKL for 2 days) immunoprecipitated with antibodies against NFATc1, p65, 14-3-3γ or SELENOW, immunoblotted
[2] = molecular target: T2, NFATc1, endogenous in mouse pre-osteoclasts (mouse (endogenous in pre-osteoclasts)); assay: as above
[3] = molecular target: T3, 14-3-3γ, endogenous in mouse pre-osteoclasts (mouse (endogenous in pre-osteoclasts)); assay: as above
[4] = molecular target: T4, His-tagged SELENOW (SeCys-13); assay: co-IP; called His-tag pull-down: extracts of HEK 293T cells expressing His-tagged SELENOW (wild type or SeCys-13 mutants), RIPA buffer, incubated overnight at 4 °C with anti-His-tag antibody, protein G agarose 3 h at 4 °C, washed three times with RIPA buffer, immunoblotted
[5] = molecular target: T1, SELENOW (retrovirally overexpressed in pre-osteoclasts); assay: co-IP; nuclear extracts of pre-osteoclasts (osteoclast precursors infected with SELENOW-overexpressing retrovirus, M-CSF and RANKL for 2 days) immunoprecipitated with antibodies against NFATc1, p65, 14-3-3γ or SELENOW, immunoblotted; remark: listed apart in the source
[6] = molecular target: NF-κB (p65), endogenous in mouse pre-osteoclasts (mouse (endogenous in pre-osteoclasts)) (UniProt Q04207); assay: as above
[7] = molecular target: T2, NFATc1, endogenous in mouse pre-osteoclasts (mouse (endogenous in pre-osteoclasts)); assay: as above; remark: listed apart in the source
[8] = molecular target: T3, 14-3-3γ, endogenous in mouse pre-osteoclasts (mouse (endogenous in pre-osteoclasts)); assay: as above; remark: listed apart in the source

Row | Molecule | binding [4] | binding [5] | binding [6] | binding [7] | binding [8] | other results
1 | NF-κB (p65), endogenous in mouse pre-osteoclasts (from UniProt Q04207 1-549) |  |  |  |  |  | binding [1]: binds; binding [2]: binds; binding [3]: no binding
2 | NF-κB (p65), endogenous in HEK 293T (from UniProt Q04206 1-551) | binds |  |  |  |  | 
3 | 14-3-3γ, endogenous in mouse pre-osteoclasts (protein, UniProt P61982 1-247) MVDREQLVQKARLAEQAERYDDMAAAMKNVTELNEPLSNEERNLLSVAYKNVVGARRSSWRVISSIEQKTSADGNEKKIEMVRAYREKIEKELEAVCQDVLSLLDNYLIKNCSETQYESKVFYLKMKGDYYRYLAEVATGEKRATVVESSEKAYSEAHEISKEHMQPTHPIRLGLALNYSVFYYEIQNAPEQACHLAKTAFDDAIAELDTLNEDSYKDSTLIMQLLRDNLTLWTSDQQDDDGGEGNN |  | binds | no binding | binds |  | 
4 | SELENOW (retrovirally overexpressed in pre-osteoclasts) (protein, UniProt P63300 1-88, selenocysteine at 13 (SeCys encoded by UGA at codon 13)) MALAVRVVYCGAUGYKPKYLQLKEKLEHEFPGCLDICGEGTPQVTGFFEVTVAGKLVHSKKRGDGYVDTESKFRKLVTAIKAALAQCQ |  |  | binds | binds | binds | 
5 | NFATc1, endogenous in mouse pre-osteoclasts (protein, UniProt O88942 1-717) MPNTSFPVPSKFPLGPPAAVCGSGETLRPAPPSGGTMKAAEEEHYSYVSPSVTSTLPLPTAHSALPAACHDLQTSTPGISAVPSANHPPSYGGAVDSGPSGYFLSSGNTRPNGAPTLESPRIEITSYLGLHHGSGQFFHDVEVEDVLPSCKRSPSTATLHLPSLEAYRDPSCLSPASSLSSRSCNSEASSYESNYSYPYASPQTSPWQSPCVSPKTTDPEEGFPRSLGACHLLGSPRHSPSTSPRASITEESWLGARGSRPTSPCNKRKYSLNGRQPSCSPHHSPTPSPHGSPRVSVTEDTWLGNTTQYTSSAIVAAINALTTDSTLDLGDGVPIKSRKTALEHAPSVALKVEPAGEDLGTTPPTSDFPPEEYTFQHLRKGAFCEQYLSVPQASYQWAKPKSLSPTSYMSPSLPALDWQLPSHSGPYELRIEVQPKSHHRAHYETEGSRGAVKASAGGHPIVQLHGYLENEPLTLQLFIGTADDRLLRPHAFYQVHRITGKTVSTTSHEIILSNTKVLEIPLLPENNMRAIIDCAGILKLRNSDIELRKGETDIGRKNTRVRLVFRVHIPQPNGRTLSLQVASNPIECSQRSAQELPLVEKQSTDSYPVIGGKKMVLSGHNFLQDSKVIFVEKAPDGHHVWEMEAKTDRDLCKPNSLVVEIPPFRNQRITSPAQVSFYVCNGKRKRSQYQRFTYLPANGNSVFLTLSSESELRGGFY |  | binds | binds |  | binds | 
6 | NFATc1, endogenous in HEK 293T (protein, UniProt O95644 1-943) MPSTSFPVPSKFPLGPAAAVFGRGETLGPAPRAGGTMKSAEEEHYGYASSNVSPALPLPTAHSTLPAPCHNLQTSTPGIIPPADHPSGYGAALDGGPAGYFLSSGHTRPDGAPALESPRIEITSCLGLYHNNNQFFHDVEVEDVLPSSKRSPSTATLSLPSLEAYRDPSCLSPASSLSSRSCNSEASSYESNYSYPYASPQTSPWQSPCVSPKTTDPEEGFPRGLGACTLLGSPRHSPSTSPRASVTEESWLGARSSRPASPCNKRKYSLNGRQPPYSPHHSPTPSPHGSPRVSVTDDSWLGNTTQYTSSAIVAAINALTTDSSLDLGDGVPVKSRKTTLEQPPSVALKVEPVGEDLGSPPPPADFAPEDYSSFQHIRKGGFCDQYLAVPQHPYQWAKPKPLSPTSYMSPTLPALDWQLPSHSGPYELRIEVQPKSHHRAHYETEGSRGAVKASAGGHPIVQLHGYLENEPLMLQLFIGTADDRLLRPHAFYQVHRITGKTVSTTSHEAILSNTKVLEIPLLPENSMRAVIDCAGILKLRNSDIELRKGETDIGRKNTRVRLVFRVHVPQPSGRTLSLQVASNPIECSQRSAQELPLVEKQSTDSYPVVGGKKMVLSGHNFLQDSKVIFVEKAPDGHHVWEMEAKTDRDLCKPNSLVVEIPPFRNQRITSPVHVSFYVCNGKRKRSQYQRFTYLPANVPIIKTEPTDDYEPAPTCGPVSQGLSPLPRPYYSQQLAMPPDPSSCLVAGFPPCPQRSTLMPAAPGVSPKLHDLSPAAYTKGVASPGHCHLGLPQPAGEAPAVQDVPRPVATHPGSPGQPPPALLPQQVSAPPSSSCPPGLEHSLCPSSPSPPLPPATQEPTCLQPCSPACPPATGRPQHLPSTVRRDESPTAGPRLLPEVHEDGSPNLAPIPVTVKREPEELDQLYLDDVNEIIRNDLSSTSTHS | binds |  |  |  |  | 
